Laboratory results published in patent publication US20230235034A1.
These are yes or no findings as the source states them, for the method shown. Some binding calls cover weakened binding; strength is not graded here.

What was measured:
[1] = target: full length tau isoform T44 (UniProt P10636); experiment: western blot
[2] = target: full length tau isoform T43 (UniProt P10636); experiment: western blot
[3] = target: mouse T40 tau (mouse) (UniProt P10637); experiment: western blot
[4] = target: ABP fragment of tau (UniProt P10636); experiment: western blot of tau fragments
[5] = target: ΔK18 fragment of tau (Homo sapiens (Human)) (UniProt P10636); experiment: western blot of tau fragments
[6] = target: ΔK18-A fragment of tau (Macaca mulatta (Rhesus macaque)) (UniProt P57786); experiment: western blot of tau fragments
[7] = target: pathological tau in Pick's disease (PiD) brain tissue (human) (UniProt P10636); experiment: immunohistochemistry on human brain sections

Measured: binding

B1: SKT82 (antibody, mouse IgG2a, V domains shown)
VH: EVQLQQSGAELVRSGASVKLSCTASGFNIKDYYMHWVKQRPEQGLEWIGWFDPENGDAEYAPKFQDKATMTADTSSNAAYLQLSSLTSEDTAVYYCNGYLYWGQGTLVTVSS
VL: DVLMTQTPLSLPVSLGDQASISCRSSQNIVHNNGNTYLEWYLQKPGQSPKLLIYKVSNRFSGVPDRFSGSGSGTDFTLKISRVEAEDLGIYYCFQGSHVPHTFGGGTRLEIK
binds: [1] | [2] | [3] | [4] | [5] | [6] | [7]
